The target in test [1] is ERK1 (of ERK1/2), endogenous in OT-I CD8+ CTLs (mouse (endogenous in OT-I CD8+ CTLs)) (UniProt Q63844). In words: co-IP; endogenous proteins in OT-I CTL lysate (RIPA lysis buffer), precipitated with an ERK1/2 antibody and protein G-coupled sepharose beads, immunoblot.
For test [2], the target named is ERK2 (of ERK1/2), endogenous in OT-I CD8+ CTLs (mouse (endogenous in OT-I CD8+ CTLs)) (UniProt P63085). Described as above.

Amino acid sequences for entries named in this document (tags omitted).
UniProt Q63844: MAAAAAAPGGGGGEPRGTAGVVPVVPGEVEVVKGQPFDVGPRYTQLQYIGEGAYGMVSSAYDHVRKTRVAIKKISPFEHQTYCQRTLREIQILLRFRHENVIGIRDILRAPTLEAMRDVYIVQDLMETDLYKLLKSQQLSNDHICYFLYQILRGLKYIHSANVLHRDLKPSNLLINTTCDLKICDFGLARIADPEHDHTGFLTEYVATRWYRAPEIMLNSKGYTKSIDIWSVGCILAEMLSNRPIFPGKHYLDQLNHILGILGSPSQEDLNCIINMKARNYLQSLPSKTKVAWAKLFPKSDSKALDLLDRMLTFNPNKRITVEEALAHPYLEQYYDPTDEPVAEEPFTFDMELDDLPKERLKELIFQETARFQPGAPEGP
UniProt P63085: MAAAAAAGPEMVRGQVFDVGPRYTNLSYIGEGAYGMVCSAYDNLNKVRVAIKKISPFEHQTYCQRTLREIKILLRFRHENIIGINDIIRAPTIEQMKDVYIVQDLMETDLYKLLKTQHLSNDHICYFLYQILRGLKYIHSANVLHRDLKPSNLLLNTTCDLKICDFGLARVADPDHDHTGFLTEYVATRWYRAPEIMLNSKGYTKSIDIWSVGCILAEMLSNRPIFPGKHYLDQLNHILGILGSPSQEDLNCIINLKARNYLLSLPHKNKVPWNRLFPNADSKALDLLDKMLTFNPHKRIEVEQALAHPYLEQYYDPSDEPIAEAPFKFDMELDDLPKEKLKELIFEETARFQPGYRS

No constants are given. Whether binding was seen depends on the method and setting. Binding seen in cells or lysates may run through a third protein. Some binding calls cover weakened binding; strength is not graded here.

B1: endogenous ULK1 in OT-I CD8+ CTLs (protein, UniProt O70405 1-1051)
chain: MEPGRGGVETVGKFEFSRKDLIGHGAFAVVFKGRHREKHDLEVAVKCINKKNLAKSQTLLGKEIKILKELKHENIVALYDFQEMANSVYLVMEYCNGGDLADYLHTMRTLSEDTVRLFLQQIAGAMRLLHSKGIIHRDLKPQNILLSNPGGRRANPSNIRVKIADFGFARYLQSNMMAATLCGSPMYMAPEVIMSQHYDGKADLWSIGTIVYQCLTGKAPFQASSPQDLRLFYEKNKTLVPAIPRETSAPLRQLLLALLQRNHKDRMDFDEFFHHPFLDASTPIKKSPPVPVPSYPSSGSGSSSSSSSASHLASPPSLGEMPQLQKTLTSPADAAGFLQGSRDSGGSSKDSCDTDDFVMVPAQFPGDLVAEAASAKPPPDSLLCSGSSLVASAGLESHGRTPSPSPTCSSSPSPSGRPGPFSSNRYGASVPIPVPTQVHNYQRIEQNLQSPTQQQTARSSAIRRSGSTTPLGFGRASPSPPSHTDGAMLARKLSLGGGRPYTPSPQVGTIPERPSWSRVPSPQGADVRVGRSPRPGSSVPEHSPRTTGLGCRLHSAPNLSDFHVVRPKLPKPPTDPLGATFSPPQTSAPQPCPGLQSCRPLRGSPKLPDFLQRSPLPPILGSPTKAGPSFDFPKTPSSQNLLTLLARQGVVMTPPRNRTLPDLSEASPFHGQQLGSGLRPAEDTRGPFGRSFSTSRITDLLLKAAFGTQASDSGSTDSLQEKPMEIAPSAGFGGTLHPGARGGGASSPAPVVFTVGSPPSGATPPQSTRTRMFSVGSSSSLGSTGSSSARHLVPGACGEAPELSAPGHCCSLADPLAANLEGAVTFEAPDLPEETLMEQEHTETLHSLRFTLAFAQQVLEIAALKGSASEAAGGPEYQLQESVVADQISQLSREWGFAEQLVLYLKVAELLSSGLQTAIDQIRAGKLCLSSTVKQVVRRLNELYKASVVSCQGLSLRLQRFFLDKQRLLDGIHGVTAERLILSHAVQMVQSAALDEMFQHREGCVPRYHKALLLLEGLQHTLTDQADIENIAKCKLCIERRLSALLSGVYA
For the molecule B1, the binding result in test [1] and in test [2] was “binds” in each case.
